± gives the uncertainty stated by the source. Many of these values have a large error.
Experiment: self-splicing fitness, log relative to wild type (ln ratio); higher = more splicing; Tetrahymena group I intron in knt gene, E. coli kanamycin selection, DiMSum; sequences stand for … in CUCUCU…GGAGGGAAAAGUUAUCAGGCAUGCACCUGGUAGCUAGUCUUUAAACCAAUAGAUUGCAUCGGUUUAAAAGGCAAGACCGUCAAAUUGCGGGAAAGGGGUCAACAGCCGUUCAGUACCAAGUCUCAGGGGAAACUUUGAGAUGGCCUUGCAAAGGGUAUGGUAAUAAGCUGACGGACAUGGUCCUAACCACGCAGCCAAGUCCUAAGUCAACAGAUCUUCUGUUGAUAUGGAUGCAGUUCACAGACUAAAUGUCGGUCGGGGAAGAUGUAUUCUUCUCAUAAGAUAUAGUCGGACCUCUCCUUAAUGGGAGCUAGCGGAUGAAGUGAUGCAACACUGGAGCCGCUGGGAACUAAUUUGUAUGCGAAAGUAUAUUGAUUAGUUUUGGAGUACUCGUGGUCG
How it was run: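 A randomised library covering all eight P1ex-region intron nucleotides was built with the intron in the knt kanamycin-resistance gene on pET-22b(+) and held in E. coli BL21(DE3). Cells were grown overnight at 37°C or 30°C on LB agar, with or without 25 μg/mL kanamycin, plus 100 μg/mL carbenicillin, 50 μM IPTG and 0.2% rhamnose, and pooled colonies were amplicon-sequenced on an Illumina HiSeq 2500. DiMSum fitness is the error-weighted combination of wild-type-normalised replicate fold changes, kanamycin versus none.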

GACAAGCAAUAUUACGUACG
self-splicing fitness (ln) (30 °C): -1.82 ± 0.077 | self-splicing fitness (ln) (37 °C): -0.508 ± 0.091

GCUUAGCAAUAUUACGCUGG
self-splicing fitness (ln) (30 °C): -2.47 ± 1.1

AGGGAGCAAUAUUACGCUAA
self-splicing fitness (ln) (30 °C): -2.38 ± 0.76

GCCGAGCAAUAUUACGCCGC
self-splicing fitness (ln) (37 °C): -3.01 ± 0.61

CCAUAGCAAUAUUACGCUGA
self-splicing fitness (ln) (30 °C): -3.52 ± 0.41 | self-splicing fitness (ln) (37 °C): -1.99 ± 0.28

— the supplement of paper PMC7877785
